Data as given in PubChem BioAssay AID1224830 (NIAID, 2016)

Assay: 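Regulators of TLR4 signalling towards TNF-alpha in macrophage-like cells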 (primary screen)
System: human THP-1 monocytic leukaemia cells, TNF dual-luciferase reporter clone, PMA-differentiated to macrophage-like cells
Reagents: siRNA pool against human genes, 50 nM
Timing: LPS for 4 h, given about 3 days after siRNA transfection
Conditions: bacterial LPS (TLR4 ligand), 10 ng/ml
Measured: 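TNF firefly reporter luminescence divided by renilla, normalised to the plate median, then turned into a robust z-score for each replicate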
Reading the numbers: TNF reporter robust z-score: higher = stronger TNF reporter response to LPS
Active means: 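a well is active when its z-score exceeds 2.8 or falls below -1.5; control wells carry no call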
In all, the deposit lists about 18,000 reagents; below is a part drawn at random. About 2,900 of all reagents (16%) count as active. 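Calls are made per well; low scores hint the gene aids the LPS response, high scores that it dampens it.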 Unmarked entries are inactive. Repeated entries: four replicate wells of each siRNA pool.

TREX1 (GeneID 11277) [SID315454737] — TNF reporter robust z-score = -0.73
TREX1 (GeneID 11277) [SID315454737] — TNF reporter robust z-score = -0.79
TREX1 (GeneID 11277) [SID315454737] — TNF reporter robust z-score = -0.19
TREX1 (GeneID 11277) [SID315454737] — TNF reporter robust z-score = 0.28
TTLL8 (GeneID 164714) [SID315462814] — TNF reporter robust z-score = 1.26
TTLL8 (GeneID 164714) [SID315462814] — TNF reporter robust z-score = -0.05
TTLL8 (GeneID 164714) [SID315462814] — TNF reporter robust z-score = -0.24
TTLL8 (GeneID 164714) [SID315462814] — TNF reporter robust z-score = 1.96
ZNF658 (GeneID 26149) [SID315455691] — TNF reporter robust z-score = -0.08
ZNF658 (GeneID 26149) [SID315455691] — TNF reporter robust z-score = 0
ZNF658 (GeneID 26149) [SID315455691] — TNF reporter robust z-score = 0.01
ZNF658 (GeneID 26149) [SID315455691] — TNF reporter robust z-score = -1.19
PPP2R3C (GeneID 55012) [SID315457344] — TNF reporter robust z-score = 0.36
PPP2R3C (GeneID 55012) [SID315457344] — TNF reporter robust z-score = 0.64
PPP2R3C (GeneID 55012) [SID315457344] — TNF reporter robust z-score = 0.74
PPP2R3C (GeneID 55012) [SID315457344] — TNF reporter robust z-score = -0.3
ALDH2 (GeneID 217) [SID315447267] — TNF reporter robust z-score = -2.55 (active)
ALDH2 (GeneID 217) [SID315447267] — TNF reporter robust z-score = -0.71
ALDH2 (GeneID 217) [SID315447267] — TNF reporter robust z-score = -0.69
ALDH2 (GeneID 217) [SID315447267] — TNF reporter robust z-score = -0.17

Hits (from the list above):
ALDH2 (GeneID 217) [SID315447267] — TNF reporter robust z-score = -2.55 (active)
